Here are results for four molecules from article PMC7351111.

By UniProt entry, the sequences of proteins in these tests, tags left out.
UniProt Q9BXW9: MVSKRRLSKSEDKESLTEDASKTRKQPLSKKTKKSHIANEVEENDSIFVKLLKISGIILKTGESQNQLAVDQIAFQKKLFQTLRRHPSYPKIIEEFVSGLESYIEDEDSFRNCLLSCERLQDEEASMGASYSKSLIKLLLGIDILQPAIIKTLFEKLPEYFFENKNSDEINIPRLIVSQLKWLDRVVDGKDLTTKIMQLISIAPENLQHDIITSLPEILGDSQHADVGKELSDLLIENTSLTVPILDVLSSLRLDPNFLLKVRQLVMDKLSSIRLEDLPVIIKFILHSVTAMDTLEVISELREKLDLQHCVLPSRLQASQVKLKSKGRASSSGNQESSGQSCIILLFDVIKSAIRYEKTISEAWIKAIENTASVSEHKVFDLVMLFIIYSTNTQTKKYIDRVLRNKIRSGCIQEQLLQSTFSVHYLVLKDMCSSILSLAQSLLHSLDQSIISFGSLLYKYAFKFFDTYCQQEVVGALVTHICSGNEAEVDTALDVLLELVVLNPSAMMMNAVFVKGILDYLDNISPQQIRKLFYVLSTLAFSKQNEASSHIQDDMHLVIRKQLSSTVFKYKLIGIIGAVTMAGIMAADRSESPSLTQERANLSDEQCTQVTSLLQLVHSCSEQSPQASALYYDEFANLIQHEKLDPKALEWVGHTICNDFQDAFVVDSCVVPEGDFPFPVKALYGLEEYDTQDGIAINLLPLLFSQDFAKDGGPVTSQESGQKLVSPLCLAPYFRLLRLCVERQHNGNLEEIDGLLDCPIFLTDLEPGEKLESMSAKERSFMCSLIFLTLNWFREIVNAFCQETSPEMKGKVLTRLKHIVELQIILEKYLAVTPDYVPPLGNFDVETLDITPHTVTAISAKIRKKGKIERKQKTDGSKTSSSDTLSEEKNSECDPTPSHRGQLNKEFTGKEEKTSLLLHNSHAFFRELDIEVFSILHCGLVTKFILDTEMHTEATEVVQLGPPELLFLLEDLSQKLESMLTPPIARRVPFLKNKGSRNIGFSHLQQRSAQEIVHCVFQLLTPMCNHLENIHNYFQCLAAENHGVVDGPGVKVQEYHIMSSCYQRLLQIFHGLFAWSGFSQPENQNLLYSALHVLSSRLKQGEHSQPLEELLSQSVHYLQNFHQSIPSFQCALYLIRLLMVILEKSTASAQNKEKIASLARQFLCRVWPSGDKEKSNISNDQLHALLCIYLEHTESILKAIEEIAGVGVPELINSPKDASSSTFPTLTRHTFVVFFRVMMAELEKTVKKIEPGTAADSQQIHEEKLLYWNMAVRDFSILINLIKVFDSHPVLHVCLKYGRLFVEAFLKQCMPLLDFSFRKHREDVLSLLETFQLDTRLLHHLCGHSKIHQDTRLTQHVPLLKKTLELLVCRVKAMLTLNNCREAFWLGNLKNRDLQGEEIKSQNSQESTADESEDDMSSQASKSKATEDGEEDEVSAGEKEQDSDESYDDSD

No constants are given. Whether binding was seen depends on the method and setting. Binding seen in cells or lysates may run through a third protein. A yes stands for co-enrichment or nearness to the bait. Other partners may have been found.

B1: FANCA (endogenous, HeLa) (protein, UniProt O15360 1-1455)
chain: MSDSWVPNSASGQDPGGRRRAWAELLAGRVKREKYNPERAQKLKESAVRLLRSHQDLNALLLEVEGPLCKKLSLSKVIDCDSSEAYANHSSSFIGSALQDQASRLGVPVGILSAGMVASSVGQICTAPAETSHPVLLTVEQRKKLSSLLEFAQYLLAHSMFSRLSFCQELWKIQSSLLLEAVWHLHVQGIVSLQELLESHPDMHAVGSWLFRNLCCLCEQMEASCQHADVARAMLSDFVQMFVLRGFQKNSDLRRTVEPEKMPQVTVDVLQRMLIFALDALAAGVQEESSTHKIVRCWFGVFSGHTLGSVISTDPLKRFFSHTLTQILTHSPVLKASDAVQMQREWSFARTHPLLTSLYRRLFVMLSAEELVGHLQEVLETQEVHWQRVLSFVSALVVCFPEAQQLLEDWVARLMAQAFESCQLDSMVTAFLVVRQAALEGPSAFLSYADWFKASFGSTRGYHGCSKKALVFLFTFLSELVPFESPRYLQVHILHPPLVPGKYRSLLTDYISLAKTRLADLKVSIENMGLYEDLSSAGDITEPHSQALQDVEKAIMVFEHTGNIPVTVMEASIFRRPYYVSHFLPALLTPRVLPKVPDSRVAFIESLKRADKIPPSLYSTYCQACSAAEEKPEDAALGVRAEPNSAEEPLGQLTAALGELRASMTDPSQRDVISAQVAVISERLRAVLGHNEDDSSVEISKIQLSINTPRLEPREHMAVDLLLTSFCQNLMAASSVAPPERQGPWAALFVRTMCGRVLPAVLTRLCQLLRHQGPSLSAPHVLGLAALAVHLGESRSALPEVDVGPPAPGAGLPVPALFDSLLTCRTRDSLFFCLKFCTAAISYSLCKFSSQSRDTLCSCLSPGLIKKFQFLMFRLFSEARQPLSEEDVASLSWRPLHLPSADWQRAALSLWTHRTFREVLKEEDVHLTYQDWLHLELEIQPEADALSDTERQDFHQWAIHEHFLPESSASGGCDGDLQAACTILVNALMDFHQSSRSYDHSENSDLVFGGRTGNEDIISRLQEMVADLELQQDLIVPLGHTPSQEHFLFEIFRRRLQALTSGWSVAASLQRQRELLMYKRILLRLPSSVLCGSSFQAEQPITARCEQFFHLVNSEMRNFCSHGGALTQDITAHFFRGLLNACLRSRDPSLMVDFILAKCQTKCPLILTSALVWWPSLEPVLLCRWRRHCQSPLPRELQKLQEGRQFASDFLSPEAASPAPNPDWLSAAALHFAIQQVREENIRKQLKKLDCEREELLVFLFFFSLMGLLSSHLTSNSTTDLPKAFHVCAAILECLEKRKISWLALFQLTESDLRLGRLLLRVAPDQHTRLLPFAFYSLLSYFHEDAAIREEAFLHVAVDMYLKLVQLFVAGDTSTVSPPAGRSLELKGQGNPVELITKARLFLLQLIPRCPKKSFSHVAELLADRGDCDPEVSAALQSRQQAAPDADLSQEPHLF
B2: POLD3 (endogenous, HeLa) (protein, UniProt Q15054 1-466)
chain: MADQLYLENIDEFVTDQNKIVTYKWLSYTLGVHVNQAKQMLYDYVERKRKENSGAQLHVTYLVSGSLIQNGHSCHKVAVVREDKLEAVKSKLAVTASIHVYSIQKAMLKDSGPLFNTDYDILKSNLQNCSKFSAIQCAAAVPRAPAESSSSSKKFEQSHLHMSSETQANNELTTNGHGPPASKQVSQQPKGIMGMFASKAAAKTQETNKETKTEAKEVTNASAAGNKAPGKGNMMSNFFGKAAMNKFKVNLDSEQAVKEEKIVEQPTVSVTEPKLATPAGLKKSSKKAEPVKVLQKEKKRGKRVALSDDETKETENMRKKRRRIKLPESDSSEDEVFPDSPGAYEAESPSPPPPPSPPLEPVPKTEPEPPSVKSSSGENKRKRKRVLKSKTYLDGEGCIVTEKVYESESCTDSEEELNMKTSSVHRPPAMTVKKEPREERKGPKKGTAALGKANRQVSITGFFQRK
B3: UHRF1 (endogenous, HeLa) (protein, UniProt Q96T88 1-793)
chain: MWIQVRTMDGRQTHTVDSLSRLTKVEELRRKIQELFHVEPGLQRLFYRGKQMEDGHTLFDYEVRLNDTIQLLVRQSLVLPHSTKERDSELSDTDSGCCLGQSESDKSSTHGEAAAETDSRPADEDMWDETELGLYKVNEYVDARDTNMGAWFEAQVVRVTRKAPSRDEPCSSTSRPALEEDVIYHVKYDDYPENGVVQMNSRDVRARARTIIKWQDLEVGQVVMLNYNPDNPKERGFWYDAEISRKRETRTARELYANVVLGDDSLNDCRIIFVDEVFKIERPGEGSPMVDNPMRRKSGPSCKHCKDDVNRLCRVCACHLCGGRQDPDKQLMCDECDMAFHIYCLDPPLSSVPSEDEWYCPECRNDASEVVLAGERLRESKKKAKMASATSSSQRDWGKGMACVGRTKECTIVPSNHYGPIPGIPVGTMWRFRVQVSESGVHRPHVAGIHGRSNDGAYSLVLAGGYEDDVDHGNFFTYTGSGGRDLSGNKRTAEQSCDQKLTNTNRALALNCFAPINDQEGAEAKDWRSGKPVRVVRNVKGGKNSKYAPAEGNRYDGIYKVVKYWPEKGKSGFLVWRYLLRRDDDEPGPWTKEGKDRIKKLGLTMQYPEGYLEALANREREKENSKREEEEQQEGGFASPRTGKGKWKRKSAGGGPSRAGSPRRTSKKTKVEPYSLTAQQSSLIREDKSNAKLWNEVLASLKDRPASGSPFQLFLSKVEETFQCICCQELVFRPITTVCQHNVCKDCLDRSFRAQVFSCPACRYDLGRSYAMQVNQPLQTVLNQLFPGYGNGR
B4: PRIM2 (endogenous, HeLa) (protein, UniProt P49643 1-509)
chain: MEFSGRKWRKLRLAGDQRNASYPHCLQFYLQPPSENISLIEFENLAIDRVKLLKSVENLGVSYVKGTEQYQSKLESELRKLKFSYRENLEDEYEPRRRDHISHFILRLAYCQSEELRRWFIQQEMDLLRFRFSILPKDKIQDFLKDSQLQFEAISDEEKTLREQEIVASSPSLSGLKLGFESIYKIPFADALDLFRGRKVYLEDGFAYVPLKDIVAIILNEFRAKLSKALALTARSLPAVQSDERLQPLLNHLSHSYTGQDYSTQGNVGKISLDQIDLLSTKSFPPCMRQLHKALRENHHLRHGGRMQYGLFLKGIGLTLEQALQFWKQEFIKGKMDPDKFDKGYSYNIRHSFGKEGKRTDYTPFSCLKIILSNPPSQGDYHGCPFRHSDPELLKQKLQSYKISPGGISQILDLVKGTHYQVACQKYFEMIHNVDDCGFSLNHPNQFFCESQRILNGGKDIKKEPIQPETPQPKPSVQKTKDASSALASLNSSLEMDMEGLEDYFSEDS

In the test the target is Flag-HA-FANCD2 (stably expressed in HeLa cells) (human) (UniProt Q9BXW9). Briefly: affinity purification with mass spectrometry; Flag-HA-FANCD2 purified in two steps (M2 anti-FLAG agarose, then anti-HA Sepharose) from nuclear extract of HeLa S3 cells treated with 160 ng/ml mitomycin C overnight; nuclei treated with Benzonase and 1% formaldehyde for 3 min; TCA precipitate analysed by silver stain and MS/MS.
Consider B1, for which the binding result is reported as “binds”.
With B2, the binding entry is listed as “binds”.
To B3 belongs “binds”.
To B4 belongs “binds”.
